Measured values as given in PubChem BioAssay AID624297 (National Center for Advancing Translational Sciences (NCATS), 2012).
Hit rate of the full screen: of about 340,000 compounds, about 6,200 (1.8%) were called active. Inconclusive means that the source gave no clear call. Such entries were picked first, then a sample of the others. The call rests on the fitted dose curve; in most records, active means well fitted activation curve with a large enough effect; inconclusive means small, poorly fitted or top-dose-only effect; inactive means no such curve, though single readings can be large or run the other way. Potencies beside an inconclusive call are fits to weak or partial responses and may not hold up.
Potency means the concentration at half of the fitted maximal effect.

Test: A quantitative high throughput screen for small molecules that induce DNA re-replication in SW480 colon adenocarcinoma cells. Further: nearly all actives have a fitted effect of over 55% in size. On re-replication activation: % of control where 0% means no effect.
Details: Hoechst DNA content imaging, 48 h; re-replication activation: at 46.1 µM (top of the series) unless noted
How it was run: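 Cells (250 per well) received 23 nL compound or DMSO by pin tool and were kept 48 hr at 37 C, 5% CO2. Nuclei were then stained with Hoechst for 40 min and scanned for DNA content.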
For COc1ccccc1CN1C(=O)C(=O)N(Cc2cccc(C)c2)C1=O, the “re-replication activation” value was inactive: -1.61%. In the case of CCc1ccccc1OCCOc1ccc(C)cc1OC, the Potency is reported as inconclusive: 29.1 µM [activator, single point]. For Cc1cc(C)nc(/N=C(\N)Nc2ccc(OCCC(C)C)cc2)n1, the “re-replication activation” value was inactive: 28.5%. With COc1cccc(/C=N/NC(=O)C(C)n2nc(C)c([N+](=O)[O-])c2C)c1O (stereo not given) the Potency was inconclusive: 8.2 µM [activator, partial curve]. With O=C(CN1CCCc2ccccc21)N/N=C/c1ccc(F)cc1F the “re-replication activation” value was inactive: -3.06%. In the case of Cc1cc(CSc2ccccc2)ccc1NC(=O)c1ccc(CN2CCOCC2)cc1, the Potency is reported as inconclusive: 32.6 µM [activator, partial curve, poor fit]. With CSS(=O)(=O)c1cccc2cccnc12 the Potency was inconclusive: 29.1 µM [activator, single point]. In the case of C=CCn1c(SCC(=O)c2ccc(O)c(O)c2)nnc1-c1cccc(Cl)c1, the Potency is reported as inconclusive: 1.64 µM [activator, partial curve]. With COc1cc(C(F)(F)F)nc(-c2ccccn2)n1 the Potency was inconclusive: 18.4 µM [activator, single point]. With O=C(CCN1C(=O)/C(=C/c2ccccc2F)SC1=S)Nc1cccnc1 the “re-replication activation” value was inactive: -0.853%. For CCOc1ccccc1NC(=O)c1cc(C(=O)c2cc(Br)ccc2O)coc1=N, the Potency was inconclusive: 29.1 µM [activator, single point]. With COc1ccc(/C=C/C(=O)Oc2cccc(/C=N/NC(=O)Cc3ccc(Br)cc3)c2)cc1 the Potency was inconclusive: 29.1 µM [activator, single point]. For OCC(Cc1ccccc1)Nc1c2ccccc2nc2ccccc12 (stereo not given), the Potency was inconclusive: 23.1 µM [activator, single point]. With COc1ccc(NC(=O)c2ccc3c(SCC(=O)O)c4c(nc3c2)CCCC4)c(OC)c1 the Potency was inconclusive: 20.6 µM [activator, single point]. In the case of COC(=O)Oc1nsnc1N1CCOCC1, the “re-replication activation” value is reported as inactive: 5.35%. For CCc1cccc(NS(=O)(=O)c2ccc(-n3cccn3)cc2)c1, the Potency was inconclusive: 23.1 µM [activator, partial curve, poor fit]. In the case of Nc1c(C(=O)NCc2ccc(Cl)cc2)sc2nc3c(c(C(F)(F)F)c12)CCC3, the Potency is reported as inconclusive: 32.6 µM [activator, single point]. For COc1cc(/C=N/N=C2/NC(=O)C(Cc3ccc(F)cc3)S2)ccc1O (stereo not given), the Potency was inconclusive: 16.4 µM [activator, single point]. For Cc1ccc2nc(-c3ccc(NC(=S)NC(=O)CC(C)C)cc3)sc2c1, the “re-replication activation” value was inactive: -0.146%. With O=c1cnn(-c2ccccc2)c(-c2ccccc2)c1 the Potency was inconclusive: 18.4 µM [activator, single point].
